From EP4676953A2

Chains of the proteins cited; added tags and fusions are not shown. Lines headed by an entry give the natural chain unless they say otherwise; changes in a name come on top.
UniProt Q9Y337: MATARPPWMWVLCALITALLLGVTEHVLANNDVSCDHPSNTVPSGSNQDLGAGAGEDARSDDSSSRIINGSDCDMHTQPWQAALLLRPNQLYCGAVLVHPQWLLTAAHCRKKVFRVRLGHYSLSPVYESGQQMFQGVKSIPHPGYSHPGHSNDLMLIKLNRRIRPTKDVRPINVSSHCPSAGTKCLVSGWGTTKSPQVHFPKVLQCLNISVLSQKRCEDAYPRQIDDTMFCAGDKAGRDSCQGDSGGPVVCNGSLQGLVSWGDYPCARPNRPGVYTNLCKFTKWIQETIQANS

Biological target: active form of human KLK5 (huKLK5) (human) (UniProt Q9Y337)
Experiment: Biacore sandwich binning, SPINK5 coupled to CM5 chip (legend of FIG. 6)

binding: binds
B1: recombinant human SPINK5 (protein, UniProt Q9NQ38 490-757, looked up)
chain: EAAKEICSEFRDQVRNGTLICTREHNPVRGPDGKMHGNKCAMCASVFKLEEEEKKNDKEEKGKVEAEKVKREAVQELCSEYRHYVRNGRLPCTRENDPIEGLDGKIHGNTCSMCEAFFQQEAKEKERAEPRAKVKREAEKETCDEFRRLLQNGKLFCTRENDPVRGPDGKTHGNKCAMCKAVFQKENEERKRKEEEDQRNAAGHGSSGGGGGNTQDECAEYREQMKNGRLSCTRESDPVRDADGKSYNNQCTMCKAKLEREAERKNEY

These are yes or no findings as the source states them, for the method shown. Binding can be weak; no strength is given.
